Results deposited as PubChem BioAssay AID1508597 (Cure First, 2020)
This is a random part of the about 2,100 reagents, in one setting of the screen. 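Calls flag viability under 80% in either arm, not effects specific to rucaparib; the reference for percent is not stated.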 Entries without a mark were called inactive. Some reagents were tested in more than one well and are listed for each. Not given: the 100% reference.

Purpose: 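Survival screen with siRNA in ovarian cancer cells derived from patients, with or without rucaparib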 (primary screen)
Cells: human ovarian carcinoma lines grown from tumours: OCI-P5x (papillary serous) and OCI-C5x (clear cell)
Reagents: siRNA pool against human genes, 1.25 pmol siRNA per well
Timing: 72 h or 96 h, depending on the cell culture
Conditions: rucaparib 20 µM (about IC30) or vehicle, present until read-out
Rucaparib or vehicle: Rucaparib
Cell line: OCI-C5x (clear cell)
Detection: 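Luminescent ATP-based viability assay read 72 or 96 h after transfection, depending on culture, given as normalised percent viability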
Reading the numbers: viability, normalised: higher = more viable cells remaining
Call rule: 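Active when normalised viability falls below 80 percent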
Meaning of the calls: active = viability under 80%; inactive = viability 80% or more

{"target gene":"PTAR1 (GeneID 375743)","technical replicate":"1","viability, normalised (%)":"44.3 (active)"}
{"target gene":"PTAR1 (GeneID 375743)","technical replicate":"2","viability, normalised (%)":"42.4 (active)"}
{"target gene":"PTAR1 (GeneID 375743)","technical replicate":"3","viability, normalised (%)":"42.5 (active)"}
{"target gene":"TOP1 (GeneID 7150)","technical replicate":"1","viability, normalised (%)":"62.6 (active)"}
{"target gene":"TOP1 (GeneID 7150)","technical replicate":"2","viability, normalised (%)":83.7}
{"target gene":"TOP1 (GeneID 7150)","technical replicate":"3","viability, normalised (%)":"54.4 (active)"}
{"target gene":"LMTK1 (GeneID 9625)","technical replicate":"1","viability, normalised (%)":"42.1 (active)"}
{"target gene":"LMTK1 (GeneID 9625)","technical replicate":"2","viability, normalised (%)":"36.1 (active)"}
{"target gene":"LMTK1 (GeneID 9625)","technical replicate":"3","viability, normalised (%)":"42.6 (active)"}

Part of the list above, set out differently.
target gene | technical replicate | viability, normalised (%)
TOP1 (GeneID 7150) | 3 | 54.4 (active)
LMTK1 (GeneID 9625) | 1 | 42.1 (active)

Continued:
{"target gene":"TNKS2 (GeneID 80351)","technical replicate":"1","viability, normalised (%)":"69.3 (active)"}
{"target gene":"TNKS2 (GeneID 80351)","technical replicate":"1","viability, normalised (%)":"39.6 (active)"}
{"target gene":"TNKS2 (GeneID 80351)","technical replicate":"2","viability, normalised (%)":"34.2 (active)"}
{"target gene":"TNKS2 (GeneID 80351)","technical replicate":"2","viability, normalised (%)":"72.5 (active)"}
{"target gene":"TNKS2 (GeneID 80351)","technical replicate":"3","viability, normalised (%)":"70.7 (active)"}
{"target gene":"TNKS2 (GeneID 80351)","technical replicate":"3","viability, normalised (%)":"26.1 (active)"}
{"target gene":"BRD8 (GeneID 10902)","technical replicate":"1","viability, normalised (%)":"43.2 (active)"}
{"target gene":"BRD8 (GeneID 10902)","technical replicate":"2","viability, normalised (%)":"49.2 (active)"}
{"target gene":"BRD8 (GeneID 10902)","technical replicate":"3","viability, normalised (%)":"51.3 (active)"}
{"target gene":"SRPK3 (GeneID 26576)","technical replicate":"1","viability, normalised (%)":"35.4 (active)"}
{"target gene":"SRPK3 (GeneID 26576)","technical replicate":"2","viability, normalised (%)":"39.5 (active)"}
{"target gene":"SRPK3 (GeneID 26576)","technical replicate":"3","viability, normalised (%)":"49.1 (active)"}
